Assay results published in US9506077B2, “Synthetic chloroplast transit peptides” (DOW AGROSCIENCES LLC, priority 2012, dated 2016).
Some of these results come from one statement about several compounds together.

Experiments:
F1 corn = assay: Glyphosate tolerance of F1 single copy dgt-28 corn, greenhouse (Table 18); format: in vivo, Zea mays; conditions: F1/T1 corn
T1 wheat = assay: Glyphosate resistance of T1 dgt-28 wheat events (Table 28); format: in vivo, wheat line Bobwhite MPB26RH; conditions: T1 dgt-28 wheat plants

Row | Molecule | glyphosate rate up to which robust tolerance was shown (F1 corn) | glyphosate rate up to which tolerance was achieved (T1 wheat)
1 | TraP4: chloroplast transit peptide, encoding sequence SEQ ID NO:24, fused to dgt-28 (protein, Chloroplast Transit Peptide) MLARQGGSLRASQCNAGLARRVEVGALVVPRPISVNDVVPHVYSAPLSVARRSCSKSSIRSTRRLQTTVCS | up to 4480 g ae/ha | up to 3360 g ae/ha
2 | TraP5: chloroplast transit peptide, encoding sequence SEQ ID NO:25, fused to dgt-28 (protein, Chloroplast Transit Peptide) MQLLNQRQALRLGRSSASKNQQVAPLASRPASSLSVSASSVAPAPACSAPAGAGRRAVVVRA | up to 4480 g ae/ha | up to 3360 g ae/ha
3 | TraP8: chloroplast transit peptide, encoding sequence SEQ ID NO:26, fused to dgt-28 (protein, Chloroplast Transit Peptide) MAQSSRICHGVQNPCVIISNLSKSNQNKSPFSVSLKTHQQQRRAYQISSWGLKKSNNGSVIRPVKA | up to 4480 g ae/ha | up to 3360 g ae/ha
